The other results are listed elsewhere or left out.
Compound: Cc1cc(ccc1-c1ccccc1)C(=O)N1CCCN(CC1)C(=O)CCl [compound 10]
Assay: probe-labelled cysteine peptide fold change vs DMSO (competition) (log2 fold change); higher = less target engagement (more negative = stronger competition)
Conditions: THP-1, incubation time: 4 h
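Also: competitive profiling in live THP-1 cells: cysteine peptides tagged with an iodoacetamide desthiobiotin (IA-DTB) probe, intensity after compound treatment relative to DMSO-treated cells.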

Row | Target | probe-labelled cysteine peptide fold change (10 µM) | probe-labelled cysteine peptide fold change (50 µM)
1 | MYO6_Q9UM54_1110_DTINTSCDIELLAACR (UniProt Q9UM54) | 0.111 | 0.0634
2 | NCBP1_Q09161_231_THVPMLQVWTADKPHPQEEYLDCLWAQIQK (UniProt Q09161) | 0.00459 | 0.0362
3 | MYO6_Q9UM54_252_LCAGASEDIR (UniProt Q9UM54) | 0.134 | 0.194
4 | MYO6_Q9UM54_63_DVEDNCSLMYLNEATLLHNIK (UniProt Q9UM54) | -0.133 | 0.237
5 | MYO6_Q9UM54_790_RVNHWLTCSR (UniProt Q9UM54) | 0.104 | 0.475
6 | MYO9A_B2RTY4_1226_ESSVDCLK (UniProt B2RTY4) | -0.335 | -0.173
7 | NAT10_Q9H0A0_746_QTPNDLTGEHSCIMLK (UniProt Q9H0A0) | 0.0778 | 0.0179
8 | NCAM2_O15394_136_QGEDAEVVCR (UniProt O15394) | -0.288 | -0.0604
9 | NAT10_Q9H0A0_517_DTLFCYHK (UniProt Q9H0A0) | 0.114 | 0.38
10 | NCF2_P19878_499_VNEEWLEGECK (UniProt P19878) | 0.102 | -0.0552
11 | NAA40_Q86UY6_59_NGLNVSIECK (UniProt Q86UY6) | 0.0107 | 0.0422
12 | MYO9B_Q13459_1857_CPDNSDPLTSMK (UniProt Q13459) | -0.0742 | -0.0566
13 | NBEAL1_Q6ZS30_271_CLTEVVHILLSSNSDQR (UniProt Q6ZS30) | 0.268 | 0.156
14 | MYO9B_Q13459_34_REQAAYHLHIYPQLSTTESQASCR (UniProt Q13459) | 0.0275 | -0.183
15 | NCAPD3_P42695_588_EDLWILQDQCR (UniProt P42695) | 0.208 | 0.563
16 | NAA15_Q9BXJ9_238_GELLLQLCR (UniProt Q9BXJ9) | 0.084 | 0.258
17 | MYSM1_Q5VVJ2_360_NLNDNEMLFHSCQMVEESHEEEELKPPEQEIEIDR (UniProt Q5VVJ2) | -0.777 | -0.807
18 | NAE1_Q13564_384_LLCSNSAFLR (UniProt Q13564) | -0.12 | -0.0585
19 | NASP_P49321_84_KYGETANECGEAFFFYGK (UniProt P49321) | 0.146 | -0.0732
20 | NAT10_Q9H0A0_105_YCYYNETHK (UniProt Q9H0A0) | 0.142 | 0.294
21 | NCAPH_Q15003_309_APLQQCAEDR (UniProt Q15003) | -0.323 | 0.0258

Row | Target | probe-labelled cysteine peptide fold change (10 µM) | probe-labelled cysteine peptide fold change (50 µM)
22 | NBEAL2_Q6ZNJ1_245_GPAPDPCLVPLALEALVGAVHVLHASR (UniProt Q6ZNJ1) | -0.141 | -0.616
23 | NAA15_Q9BXJ9_214_EALEHLCTYEK (UniProt Q9BXJ9) | 0.152 | 0.056
24 | NCAPH2_Q6IBW4_309_EGAPEPASCVK (UniProt Q6IBW4) | -0.129 | 0.0477
25 | NCAM2_O15394_232_GEEMTFSCR (UniProt O15394) | -0.145 | -0.0222
26 | NARF_Q9UHQ1_192_VLGRPITAHLCTAK (UniProt Q9UHQ1) | -0.224 | -0.402
27 | NCBP1_Q09161_477+483_ILDIVPPTFSALCPANPTCIYK (UniProt Q09161) | -0.0108 | 0.12
28 | NAPRT_Q6XQN6_477+484_LCLQQGQLCEPLPSLAESR (UniProt Q6XQN6) | -0.0859 | 0.158
29 | NADK2_Q4G0N4_193_SEGHLCLPVR (UniProt Q4G0N4) | -0.0947 | 0.146
30 | NAA80_Q93015_104_LHSLGQSSDAFPLCLMLLSPHPTLEAAPVVVGHAR (UniProt Q93015) | 0.114 | -0.122
31 | NAGA_P17050_42_CNINCDEDPK (UniProt P17050) | -0.0306 | 0.15
32 | NCAPG_Q9BPX3_667_TLHCEGTEINSDDEQESK (UniProt Q9BPX3) | -0.265 | -0.36
33 | NCAPH_Q15003_397+402_EPCQVQSCQEEMISLGDGDIR (UniProt Q15003) | -0.189 | -0.308
34 | NAPRT_Q6XQN6_48_CPFGGAFALAAGLR (UniProt Q6XQN6) | -0.753 | 0.174
35 | NAA10_P41227_17_NARPEDLMNMQHCNLLCLPENYQMK (UniProt P41227) | 0.0322 | -0.276
36 | NCAPH2_Q6IBW4_535_FPQLNEWCPFAELVAGQPAFEVCR (UniProt Q6IBW4) | -0.239 | 0.00304
37 | NAB2_Q15742_499_CPAPGPHPALVEGR (UniProt Q15742) | 0.15 | 0.289
38 | NCKAP1L_P55160_338_EHVIANSGQFHCQR (UniProt P55160) | -0.0156 | -0.232
39 | NAA50_Q9GZZ1_100_MLNHVLNICEK (UniProt Q9GZZ1) | 0.0552 | 0.109
40 | NAA40_Q86UY6_26_AAMDAVCAK (UniProt Q86UY6) | -0.131 | -0.236
41 | NACC1_Q96RE7_178_VKTEQQESDSVQCMPVAK (UniProt Q96RE7) | -0.278 | -0.63

Exported as a markdown table: entries from further up

| Row | Target | probe-labelled cysteine peptide fold change (10 µM) | probe-labelled cysteine peptide fold change (50 µM) |
| --- | --- | --- | --- |
| 23 | NAA15_Q9BXJ9_214_EALEHLCTYEK (UniProt Q9BXJ9) | 0.152 | 0.056 |
| 24 | NCAPH2_Q6IBW4_309_EGAPEPASCVK (UniProt Q6IBW4) | -0.129 | 0.0477 |
| 25 | NCAM2_O15394_232_GEEMTFSCR (UniProt O15394) | -0.145 | -0.0222 |
